Measurements reported in PubChem BioAssay AID686938 (Drosophila RNAi Screening Center, 2013)
The deposit covers about 23,000 reagents; shown is an unselected part of those that have a named target and a result. Of all reagents, 75 (0.33%) are marked active. 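Raw plate signals without normalisation; calls rest on plate z-scores that were not deposited; ratio present for only 364 wells.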 Reagents against one gene are numbered here. Not given: the dose of the treatment.

- Purpose: 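Looking for CRAC channel components and the factors controlling them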 (primary screen)
- Cells: Drosophila S2R+ cells
- Reagents: long dsRNA against Drosophila genes, about 0.25 µg dsRNA per well, roughly 10,000 cells
- Timing: 5 days of knock-down before the calcium assay
- Treatment: thapsigargin (SERCA pump blocker) to empty calcium stores; entry signal taken 4 min after adding it
- Detection: 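Per-well fluo-4 fluorescence in two replicates, unnormalised, measured in resting cells and 4 min after store depletion by the SERCA blocker thapsigargin; ratio of the two present in few wells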
- Reading the numbers: calcium entry signal: higher = stronger calcium signal after store depletion; entry to resting ratio: higher = more calcium entry relative to resting level; resting calcium signal: higher = higher resting calcium signal
- Call rule: 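Hit if the duplicate-averaged plate z-score for entry over resting signal is under −3; wells with weak total dye signal (Fmax z < −2) or more than 5 off-targets removed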
- Calls: active = strongly reduced calcium entry; inactive = no strong reduction

Gene | dsRNA no. | calcium entry signal, replicate 1 (fluorescence units) | calcium entry signal, replicate 2 (fluorescence units) | entry to resting ratio | resting calcium signal, replicate 1 (fluorescence units) | resting calcium signal, replicate 2 (fluorescence units) | Outcome
wus (wurst) | 1 | 2.62e7 | 2.40e7 | – | 1.22e7 | 1.18e7 | inactive
CG7276 | 1 | 3.08e7 | 5.72e7 | – | 1.57e7 | 2.27e7 | inactive
PGRP-SD (Peptidoglycan recognition protein SD) | 1 | 3.31e7 | 4.35e7 | – | 1.54e7 | 2.08e7 | inactive
CG42788 | 1 | 3.16e7 | 4.66e7 | – | 1.62e7 | 6.72e7 | inactive
CG42788 | 2 | 3.36e7 | 4.50e7 | – | 1.68e7 | 5.99e7 | inactive
CG42788 | 3 | 3.32e7 | 5.03e7 | – | 1.67e7 | 6.01e7 | inactive
mRpL48 (mitochondrial ribosomal protein L48) | 1 | 4.32e7 | 5.82e7 | – | 1.83e7 | 2.25e7 | inactive
Grx3 (Glutaredoxin 3) | 1 | 3.80e7 | – | – | 2.07e7 | – | inactive
yellow-d2 | 1 | 3.43e7 | 3.59e7 | – | 1.70e7 | 1.43e7 | inactive
CG10257 | 1 | 3.29e7 | 4.87e7 | – | 1.70e7 | 2.22e7 | inactive
Sec63 (Secretory 63) | 1 | 2.59e7 | 4.24e7 | – | 1.25e7 | 1.93e7 | inactive
l(2)09851 (lethal (2) 09851) | 1 | 3.99e7 | 4.29e7 | – | 2.02e7 | 2.01e7 | inactive
spri (sprint) | 1 | 3.22e7 | 5.16e7 | – | 1.92e7 | 3.10e7 | inactive
spri (sprint) | 2 | 4.07e7 | 4.83e7 | – | 1.84e7 | 2.36e7 | inactive
spri (sprint) | 3 | 3.64e7 | 5.68e7 | – | 1.71e7 | 2.59e7 | inactive
spri (sprint) | 4 | 3.67e7 | 3.22e7 | – | 1.64e7 | 1.50e7 | inactive
spri (sprint) | 5 | 2.61e7 | 2.83e7 | – | 1.29e7 | 1.34e7 | inactive
spri (sprint) | 6 | 3.10e7 | 3.31e7 | – | 1.54e7 | 1.62e7 | inactive
spri (sprint) | 7 | 3.61e7 | 3.44e7 | – | 1.95e7 | 1.48e7 | inactive
barr (barren) | 1 | 2.41e7 | 2.46e7 | – | 1.66e7 | 1.55e7 | inactive
futsch | 1 | 2.98e7 | 4.40e7 | – | 1.67e7 | 1.74e7 | inactive
futsch | 2 | 2.79e7 | 5.51e7 | 2 | 1.42e7 | 2.86e7 | inactive
futsch | 3 | 2.95e7 | 3.66e7 | – | 1.37e7 | 1.73e7 | inactive
futsch | 4 | 2.28e7 | 3.88e7 | 2 | 1.16e7 | 1.60e7 | inactive
CG12426 | 1 | 2.76e7 | 5.14e7 | – | 1.48e7 | 2.33e7 | inactive
Nlg2 (Neuroligin 2) | 1 | 3.72e7 | 3.57e7 | – | 1.83e7 | 1.58e7 | inactive
Nlg2 (Neuroligin 2) | 2 | 3.15e7 | 3.07e7 | – | 1.52e7 | 1.43e7 | inactive
DCTN1-p150 (Dynactin 1, p150 subunit) | 1 | 2.70e7 | 3.73e7 | – | 1.19e7 | 2.60e7 | inactive
run (runt) | 1 | 4.41e7 | 4.33e7 | – | 1.90e7 | 1.87e7 | inactive
run (runt) | 2 | 3.15e7 | 3.29e7 | – | 1.79e7 | 1.64e7 | inactive
CG8888 | 1 | 3.55e7 | 2.98e7 | – | 1.48e7 | 1.46e7 | inactive
CG8888 | 2 | 1.88e7 | 3.66e7 | – | 1.03e7 | 1.43e7 | inactive
CG32221 | 1 | 3.86e7 | 3.36e7 | – | 1.91e7 | 1.49e7 | inactive
Drice (Death related ICE-like caspase) | 1 | 3.55e7 | 4.23e7 | – | 1.67e7 | 2.05e7 | inactive
CG42583 | 1 | 4.60e7 | 4.24e7 | – | 2.43e7 | 1.85e7 | inactive
CG17683 | 1 | 3.78e7 | 3.25e7 | – | 2.06e7 | 1.53e7 | inactive
CG13086 | 1 | 6.29e7 | 5.07e7 | – | 3.19e7 | 1.98e7 | inactive
CG11878 | 1 | 3.74e7 | 3.86e7 | – | 2.09e7 | 1.51e7 | inactive
Trf4-2 (Topoisomerase related function 4-2) | 1 | 4.04e7 | 4.51e7 | – | 1.97e7 | 1.87e7 | inactive
CG4661 | 1 | 3.60e7 | 5.79e7 | – | 1.78e7 | 2.66e7 | inactive
Ir85a (Ionotropic receptor 85a) | 1 | 5.50e7 | 4.18e7 | – | 2.67e7 | 1.97e7 | inactive
CG8777 | 1 | 4.91e7 | 4.28e7 | – | 1.98e7 | 1.93e7 | inactive
CG6689 | 1 | 3.91e7 | 4.74e7 | – | 1.67e7 | 2.07e7 | inactive
Rap2l (Ras-associated protein 2-like) | 1 | 3.55e7 | 4.56e7 | – | 2.01e7 | 1.93e7 | inactive
Obp58b (Odorant-binding protein 58b) | 1 | 3.92e7 | 3.81e7 | – | 2.01e7 | 1.85e7 | inactive
CG13384 | 1 | 5.00e7 | – | – | 2.21e7 | – | inactive
CG9570 | 1 | 5.80e7 | 3.88e7 | – | 2.77e7 | 1.71e7 | inactive
r2d2 | 1 | 3.71e7 | 4.74e7 | – | 1.58e7 | 2.00e7 | inactive
CG43295 | 1 | 3.66e7 | 3.85e7 | – | 1.65e7 | 1.83e7 | inactive
CG3702 | 1 | 4.84e7 | – | – | 2.50e7 | – | inactive
nmo (nemo) | 1 | 2.78e7 | 4.97e7 | – | 1.53e7 | 1.99e7 | inactive
nmo (nemo) | 2 | 4.57e7 | 3.85e7 | – | 3.27e7 | 1.63e7 | inactive
CG42490 (retired record) | 1 | 1.52e7 | 3.49e7 | – | 1.26e7 | 1.53e7 | inactive
Rpp25 (Ribonuclease P/MRP subunit p25) | 1 | 4.34e7 | 4.98e7 | – | 2.36e7 | 2.24e7 | inactive
TfIIA-S (Transcription-factor-IIA-S) | 1 | 3.54e7 | 3.92e7 | – | 1.72e7 | 1.56e7 | inactive
CG2811 | 1 | 2.59e7 | 4.22e7 | – | 1.51e7 | 1.68e7 | inactive
Mur2B (Mucin related 2B) | 1 | 6.35e7 | 5.21e7 | 2.5 | 2.58e7 | 2.16e7 | inactive
Mur2B (Mucin related 2B) | 2 | 4.67e7 | 4.25e7 | 1.9 | 2.43e7 | 2.07e7 | inactive
tup (tailup) | 1 | 4.16e7 | – | – | 2.05e7 | – | inactive
Lcp65Ad | 1 | 2.88e7 | 5.41e7 | – | 1.47e7 | 2.12e7 | inactive
ari-2 (ariadne 2) | 1 | 3.13e7 | 5.57e7 | – | 1.58e7 | 2.37e7 | inactive
Polr1H (RNA polymerase I subunit H) | 1 | 1.71e7 | 2.04e7 | – | 9.24e6 | 1.07e7 | inactive
nonC (no-on-and-no-off transient C) | 1 | 3.04e7 | 3.47e7 | – | 1.42e7 | 1.52e7 | inactive
nonC (no-on-and-no-off transient C) | 2 | 2.72e7 | 4.22e7 | – | 1.34e7 | 1.77e7 | inactive
RpL34b (Ribosomal protein L34b) | 1 | 2.35e7 | 1.95e7 | – | 1.24e7 | 1.13e7 | inactive
Naam (Nicotinamide amidase) | 1 | 5.13e7 | 4.89e7 | – | 5.00e7 | 2.19e7 | inactive
Sap130 (Sin3A-associated protein 130) | 1 | 1.76e7 | 2.04e7 | – | 9.81e6 | 1.03e7 | inactive
Echs1 (Enoyl-CoA hydratase, short chain 1) | 1 | 3.42e7 | 4.43e7 | – | 1.74e7 | 1.84e7 | inactive
Polr3H (RNA polymerase III subunit H) | 1 | 2.13e7 | 1.95e7 | – | 1.16e7 | 9.04e6 | inactive
Taf11 (TBP-associated factor 11) | 1 | 3.21e7 | 4.88e7 | – | 1.72e7 | 2.15e7 | inactive
CG9522 | 1 | 3.45e7 | 3.09e7 | – | 1.77e7 | 1.56e7 | inactive
CG8012 | 1 | 3.02e7 | 3.07e7 | – | 1.48e7 | 1.29e7 | inactive
hiw (highwire) | 1 | 3.78e7 | 3.22e7 | – | 2.17e7 | 1.62e7 | inactive
hiw (highwire) | 2 | 4.02e7 | 3.24e7 | – | 2.05e7 | 1.57e7 | inactive
CG6067 | 1 | 2.63e7 | 4.42e7 | – | 1.40e7 | 2.10e7 | inactive
